The values that follow come from the supplement of paper PMC10849652.

Chains of the proteins cited; added tags and fusions are not shown. Lines headed by an entry give the natural chain unless they say otherwise; changes in a name come on top.
UniProt Q9ULX6: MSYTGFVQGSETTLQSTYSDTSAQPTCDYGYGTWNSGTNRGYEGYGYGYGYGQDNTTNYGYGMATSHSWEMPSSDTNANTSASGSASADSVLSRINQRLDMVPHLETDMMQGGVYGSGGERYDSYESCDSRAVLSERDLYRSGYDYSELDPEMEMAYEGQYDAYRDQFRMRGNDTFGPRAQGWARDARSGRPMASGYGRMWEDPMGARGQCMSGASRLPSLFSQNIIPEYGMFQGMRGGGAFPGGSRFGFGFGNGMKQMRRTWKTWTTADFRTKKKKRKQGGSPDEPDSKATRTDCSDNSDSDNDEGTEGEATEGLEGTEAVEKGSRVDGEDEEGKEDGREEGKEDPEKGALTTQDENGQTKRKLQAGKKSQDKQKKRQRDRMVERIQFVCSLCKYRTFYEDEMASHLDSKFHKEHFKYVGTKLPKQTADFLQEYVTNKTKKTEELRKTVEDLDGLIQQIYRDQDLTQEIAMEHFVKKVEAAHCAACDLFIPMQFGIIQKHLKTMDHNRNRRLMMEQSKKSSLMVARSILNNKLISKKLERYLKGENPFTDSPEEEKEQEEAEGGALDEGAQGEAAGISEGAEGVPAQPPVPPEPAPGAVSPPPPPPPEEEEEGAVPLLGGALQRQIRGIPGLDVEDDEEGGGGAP
UniProt Q7Z6V5: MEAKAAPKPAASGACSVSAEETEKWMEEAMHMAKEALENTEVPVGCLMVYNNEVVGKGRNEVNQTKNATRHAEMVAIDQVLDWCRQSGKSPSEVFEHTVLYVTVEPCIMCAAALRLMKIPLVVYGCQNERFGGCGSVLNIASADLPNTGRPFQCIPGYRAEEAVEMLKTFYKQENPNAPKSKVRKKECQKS
UniProt Q9H568: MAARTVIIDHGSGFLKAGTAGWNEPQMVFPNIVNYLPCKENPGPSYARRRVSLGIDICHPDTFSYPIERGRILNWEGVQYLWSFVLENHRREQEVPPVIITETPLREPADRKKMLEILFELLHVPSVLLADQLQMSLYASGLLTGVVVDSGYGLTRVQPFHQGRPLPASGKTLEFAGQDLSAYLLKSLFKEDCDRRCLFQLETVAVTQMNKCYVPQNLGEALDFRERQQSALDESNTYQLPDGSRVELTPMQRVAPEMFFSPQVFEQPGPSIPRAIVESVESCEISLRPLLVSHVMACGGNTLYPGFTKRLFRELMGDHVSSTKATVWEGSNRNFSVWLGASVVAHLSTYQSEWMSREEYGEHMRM
UniProt P61163, whole entry, looked up: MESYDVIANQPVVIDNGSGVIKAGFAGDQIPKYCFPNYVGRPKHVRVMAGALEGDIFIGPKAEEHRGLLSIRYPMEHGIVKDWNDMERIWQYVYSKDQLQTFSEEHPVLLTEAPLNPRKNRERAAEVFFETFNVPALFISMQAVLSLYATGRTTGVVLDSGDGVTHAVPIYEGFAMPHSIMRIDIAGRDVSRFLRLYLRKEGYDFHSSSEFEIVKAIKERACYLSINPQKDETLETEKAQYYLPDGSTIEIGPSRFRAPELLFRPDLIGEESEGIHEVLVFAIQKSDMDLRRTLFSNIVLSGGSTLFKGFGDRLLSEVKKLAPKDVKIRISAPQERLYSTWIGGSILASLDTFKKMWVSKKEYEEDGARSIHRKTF
UniProt O43865, whole entry, looked up: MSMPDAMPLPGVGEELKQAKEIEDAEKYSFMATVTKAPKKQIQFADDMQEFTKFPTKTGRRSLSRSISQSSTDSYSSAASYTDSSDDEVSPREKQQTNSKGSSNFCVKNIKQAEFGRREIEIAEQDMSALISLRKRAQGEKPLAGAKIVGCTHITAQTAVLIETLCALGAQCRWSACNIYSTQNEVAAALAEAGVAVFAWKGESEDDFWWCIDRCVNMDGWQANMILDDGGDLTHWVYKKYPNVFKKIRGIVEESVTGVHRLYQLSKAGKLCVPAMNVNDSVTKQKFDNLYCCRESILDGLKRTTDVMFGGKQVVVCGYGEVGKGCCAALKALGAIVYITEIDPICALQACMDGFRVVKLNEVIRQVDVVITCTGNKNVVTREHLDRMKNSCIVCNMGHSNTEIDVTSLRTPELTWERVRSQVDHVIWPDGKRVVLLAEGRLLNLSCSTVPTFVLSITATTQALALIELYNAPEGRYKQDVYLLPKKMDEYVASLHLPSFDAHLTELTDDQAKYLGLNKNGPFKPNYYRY
UniProt Q53H80, whole entry, looked up: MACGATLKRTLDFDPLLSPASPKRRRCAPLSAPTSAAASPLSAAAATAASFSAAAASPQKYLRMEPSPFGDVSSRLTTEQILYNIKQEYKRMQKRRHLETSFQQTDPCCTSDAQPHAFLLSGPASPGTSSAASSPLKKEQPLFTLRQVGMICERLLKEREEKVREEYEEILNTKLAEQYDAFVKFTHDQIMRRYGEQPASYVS
UniProt O95831, whole entry, looked up: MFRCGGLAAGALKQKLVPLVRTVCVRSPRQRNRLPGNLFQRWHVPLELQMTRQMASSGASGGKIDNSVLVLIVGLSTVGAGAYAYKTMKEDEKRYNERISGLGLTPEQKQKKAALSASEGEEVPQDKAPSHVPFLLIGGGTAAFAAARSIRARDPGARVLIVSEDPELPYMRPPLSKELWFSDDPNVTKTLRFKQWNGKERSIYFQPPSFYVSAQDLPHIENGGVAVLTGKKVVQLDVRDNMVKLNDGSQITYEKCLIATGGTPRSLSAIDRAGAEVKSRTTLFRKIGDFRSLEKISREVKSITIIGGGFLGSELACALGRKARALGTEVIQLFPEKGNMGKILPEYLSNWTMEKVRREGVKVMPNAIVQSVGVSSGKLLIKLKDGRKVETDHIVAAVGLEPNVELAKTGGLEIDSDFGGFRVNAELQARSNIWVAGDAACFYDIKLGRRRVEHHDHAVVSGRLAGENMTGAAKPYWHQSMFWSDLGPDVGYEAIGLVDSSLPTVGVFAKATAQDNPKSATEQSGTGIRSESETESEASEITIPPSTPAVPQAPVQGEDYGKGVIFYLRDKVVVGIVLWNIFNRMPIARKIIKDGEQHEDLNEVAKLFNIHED
UniProt P07311: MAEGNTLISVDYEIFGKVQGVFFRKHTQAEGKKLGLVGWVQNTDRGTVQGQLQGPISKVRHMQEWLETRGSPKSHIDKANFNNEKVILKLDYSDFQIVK
UniProt O00154: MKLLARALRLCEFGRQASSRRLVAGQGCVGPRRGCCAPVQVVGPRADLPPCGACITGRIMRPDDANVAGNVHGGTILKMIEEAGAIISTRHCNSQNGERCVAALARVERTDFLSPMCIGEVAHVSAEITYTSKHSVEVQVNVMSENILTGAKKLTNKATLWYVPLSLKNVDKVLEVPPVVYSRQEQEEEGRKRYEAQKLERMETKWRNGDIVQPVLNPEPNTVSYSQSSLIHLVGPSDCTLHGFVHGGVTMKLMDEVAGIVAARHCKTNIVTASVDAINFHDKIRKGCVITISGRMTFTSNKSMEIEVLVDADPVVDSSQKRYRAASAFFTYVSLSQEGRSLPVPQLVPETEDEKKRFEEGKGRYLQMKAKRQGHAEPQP
UniProt O95081: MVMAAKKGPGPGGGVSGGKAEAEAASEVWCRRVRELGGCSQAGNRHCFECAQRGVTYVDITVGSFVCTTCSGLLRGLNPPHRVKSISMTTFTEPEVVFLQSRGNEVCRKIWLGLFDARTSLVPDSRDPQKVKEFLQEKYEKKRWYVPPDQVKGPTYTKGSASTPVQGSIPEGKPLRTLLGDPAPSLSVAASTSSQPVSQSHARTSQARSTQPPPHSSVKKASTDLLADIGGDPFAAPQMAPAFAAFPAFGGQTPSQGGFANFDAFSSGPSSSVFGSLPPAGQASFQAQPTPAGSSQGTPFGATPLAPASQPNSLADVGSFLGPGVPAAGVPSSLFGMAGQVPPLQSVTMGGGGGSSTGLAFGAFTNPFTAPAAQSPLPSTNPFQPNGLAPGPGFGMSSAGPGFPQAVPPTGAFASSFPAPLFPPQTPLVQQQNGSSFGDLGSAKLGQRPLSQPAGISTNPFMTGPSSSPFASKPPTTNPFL
UniProt Q9H9F9, whole entry, looked up: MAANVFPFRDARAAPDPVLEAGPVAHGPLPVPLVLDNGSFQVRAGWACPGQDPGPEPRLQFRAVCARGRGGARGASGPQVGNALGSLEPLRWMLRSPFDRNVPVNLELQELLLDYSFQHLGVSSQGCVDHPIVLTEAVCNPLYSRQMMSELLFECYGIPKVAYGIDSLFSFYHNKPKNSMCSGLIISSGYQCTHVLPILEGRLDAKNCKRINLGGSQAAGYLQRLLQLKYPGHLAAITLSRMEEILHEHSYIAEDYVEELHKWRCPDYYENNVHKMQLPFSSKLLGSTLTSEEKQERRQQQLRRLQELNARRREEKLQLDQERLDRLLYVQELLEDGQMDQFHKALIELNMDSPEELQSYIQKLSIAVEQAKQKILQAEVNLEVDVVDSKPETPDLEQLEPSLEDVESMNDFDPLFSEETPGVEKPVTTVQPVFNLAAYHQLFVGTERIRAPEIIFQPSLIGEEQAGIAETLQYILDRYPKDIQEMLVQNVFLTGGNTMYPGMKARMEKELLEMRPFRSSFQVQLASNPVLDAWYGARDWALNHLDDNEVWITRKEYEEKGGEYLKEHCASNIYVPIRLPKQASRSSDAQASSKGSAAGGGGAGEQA
UniProt O00468: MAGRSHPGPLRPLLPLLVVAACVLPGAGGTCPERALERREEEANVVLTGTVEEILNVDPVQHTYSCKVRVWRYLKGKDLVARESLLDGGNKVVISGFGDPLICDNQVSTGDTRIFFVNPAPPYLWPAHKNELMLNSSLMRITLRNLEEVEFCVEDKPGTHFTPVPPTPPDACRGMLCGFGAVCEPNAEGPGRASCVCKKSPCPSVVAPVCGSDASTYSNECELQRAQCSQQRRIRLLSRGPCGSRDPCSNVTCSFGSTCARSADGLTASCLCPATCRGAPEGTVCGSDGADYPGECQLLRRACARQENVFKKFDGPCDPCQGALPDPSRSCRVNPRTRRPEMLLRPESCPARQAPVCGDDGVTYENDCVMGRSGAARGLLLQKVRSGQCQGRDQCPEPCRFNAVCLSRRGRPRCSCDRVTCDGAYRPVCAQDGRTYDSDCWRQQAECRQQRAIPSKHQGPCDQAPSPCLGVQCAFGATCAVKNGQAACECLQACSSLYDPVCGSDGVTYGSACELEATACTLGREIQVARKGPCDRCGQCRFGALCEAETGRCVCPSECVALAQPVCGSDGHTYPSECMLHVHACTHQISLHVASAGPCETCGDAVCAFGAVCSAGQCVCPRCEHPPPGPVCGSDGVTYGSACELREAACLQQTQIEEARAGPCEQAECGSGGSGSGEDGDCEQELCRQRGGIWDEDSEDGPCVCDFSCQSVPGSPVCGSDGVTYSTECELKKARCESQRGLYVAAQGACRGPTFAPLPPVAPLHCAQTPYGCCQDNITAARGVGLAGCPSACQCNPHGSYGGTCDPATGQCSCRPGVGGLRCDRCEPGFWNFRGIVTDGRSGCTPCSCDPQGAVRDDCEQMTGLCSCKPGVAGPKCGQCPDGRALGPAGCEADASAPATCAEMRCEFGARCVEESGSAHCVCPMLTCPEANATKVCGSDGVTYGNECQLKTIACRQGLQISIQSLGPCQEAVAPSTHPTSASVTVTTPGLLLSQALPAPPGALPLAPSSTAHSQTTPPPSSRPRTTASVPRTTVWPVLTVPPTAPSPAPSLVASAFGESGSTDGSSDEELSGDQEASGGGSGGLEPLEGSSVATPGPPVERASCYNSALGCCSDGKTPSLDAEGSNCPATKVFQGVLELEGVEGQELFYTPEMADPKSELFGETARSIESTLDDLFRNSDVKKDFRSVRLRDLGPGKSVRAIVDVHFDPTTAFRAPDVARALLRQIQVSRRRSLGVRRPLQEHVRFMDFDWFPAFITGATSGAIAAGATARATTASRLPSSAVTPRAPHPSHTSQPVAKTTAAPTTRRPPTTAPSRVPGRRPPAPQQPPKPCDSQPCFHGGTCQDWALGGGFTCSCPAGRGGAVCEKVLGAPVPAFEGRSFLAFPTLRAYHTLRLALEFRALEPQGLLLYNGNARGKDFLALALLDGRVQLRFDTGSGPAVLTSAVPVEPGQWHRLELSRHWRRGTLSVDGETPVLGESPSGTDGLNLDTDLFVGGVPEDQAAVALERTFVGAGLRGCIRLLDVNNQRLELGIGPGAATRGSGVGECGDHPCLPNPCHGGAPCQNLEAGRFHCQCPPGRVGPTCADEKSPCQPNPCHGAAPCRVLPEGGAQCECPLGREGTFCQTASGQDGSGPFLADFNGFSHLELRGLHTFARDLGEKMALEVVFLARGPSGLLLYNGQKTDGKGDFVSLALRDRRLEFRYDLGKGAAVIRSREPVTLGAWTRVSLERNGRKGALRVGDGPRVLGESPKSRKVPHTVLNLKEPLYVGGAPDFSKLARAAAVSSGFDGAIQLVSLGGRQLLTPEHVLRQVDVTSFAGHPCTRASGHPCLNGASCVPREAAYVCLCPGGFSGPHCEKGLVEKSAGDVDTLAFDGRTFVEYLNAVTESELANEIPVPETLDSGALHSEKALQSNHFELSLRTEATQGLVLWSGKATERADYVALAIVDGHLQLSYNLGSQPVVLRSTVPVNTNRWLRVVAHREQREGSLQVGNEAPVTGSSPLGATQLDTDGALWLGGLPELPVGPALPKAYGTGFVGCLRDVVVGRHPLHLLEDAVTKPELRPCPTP

The other results are listed elsewhere or left out.

Compound in this test: O=C(CCCCCCC(=O)Nc1ccccc1)NO [vorinostat]
Briefly: log2 fold change, soluble protein after heating vs DMSO (PISA); higher = thermal stabilisation; K562 lysate, 10 uM; active = over 0.2 and 3.5 SD of the protein, either way, in both replicates (recomputed). In short, it runs like this: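 Thermal stability, expressed as log-two fold change relative to solvent controls, is given from duplicates. Crude K562 extract in PBS pH 7.4 with 1 mM MgCl2, at 1 mg/mL protein, was treated with 10 μM compound for 30 min and heated in aliquots for 3 min across 48°C-58°C. After pooling, adjustment to 0.5% NP-40 at 4°C and centrifugation at 21,000xg for 90 min, supernatant protein was measured by TMTpro 16plex LC-MS/MS with channel sums equalised.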
As for ACY1 (UniProt Q03154), the log2 fold change was inactive: 0.108.

As to ACTB, A0A2R8Y793, the log2 fold change was inactive: -0.128.

In the case of AKAP8L (UniProt Q9ULX6), the log2 fold change was inactive: -0.213.

For the target AGFG1 isoform 4 (UniProt P52594), the log2 fold change is inactive: 0.101.

On to ACTR10 (UniProt Q9NZ32), for which the log2 fold change was inactive: 0.013.

Regarding AFF1 isoform 2 (UniProt P51825), the log2 fold change is inactive: -0.074.

In the case of AKAP1 (UniProt Q92667), the log2 fold change was inactive: 0.015.

Turning to ADAT2 (UniProt Q7Z6V5), the log2 fold change is inactive: -0.065.

As for ADIPOR2 (UniProt Q86V24), the log2 fold change was inactive: 0.175.

Take ACTL8 (UniProt Q9H568): the log2 fold change is inactive: 0.091.

As to ACTR1A (UniProt P61163), the log2 fold change was inactive: 0.104.

As for AGK (UniProt Q53H12), the log2 fold change was inactive: 0.033.

Consider ADAM9 (UniProt Q13443), for which the log2 fold change is inactive: 0.193.

Consider AHCYL1 (UniProt O43865), for which the log2 fold change was active: -0.287.

On to AKIRIN2 (UniProt Q53H80), for which the log2 fold change was inactive: 0.135.

For the target AIP (UniProt O00170), the log2 fold change was inactive: -0.061.

On to ACTG1 (UniProt I3L4N8), for which the log2 fold change was inactive: 0.358.

Regarding ACTR3B (UniProt Q9P1U1), the log2 fold change was inactive: 0.042.

AKNA (UniProt Q7Z591): the log2 fold change was inactive: -0.033.

For AKR1C2 (UniProt P52895), the log2 fold change is active: 0.504.

On to AIFM1 (UniProt O95831), for which the log2 fold change is inactive: 0.152.

Turning to AKAP8 (UniProt O43823), the log2 fold change is inactive: -0.095.

Take ACYP1 (UniProt P07311): the log2 fold change is inactive: 0.127.

Take AHCY (UniProt P23526): the log2 fold change is inactive: -0.027.

On to ADNP (UniProt Q9H2P0), for which the log2 fold change is inactive: -0.025.

In the case of ACTR2 (UniProt P61160), the log2 fold change is inactive: 0.108.

Turning to ACOT7 isoform 7 (UniProt O00154), the log2 fold change was inactive: 0.073.

As for AGFG2 (UniProt O95081), the log2 fold change is inactive: 0.065.

Regarding ACTN2, A0A494C031, the log2 fold change was inactive: -0.078.

For ACTR5 (UniProt Q9H9F9), the log2 fold change was inactive: -0.032.

For AGRN (UniProt O00468), the log2 fold change is inactive: 0.129.

For the target AIFM2 (UniProt Q9BRQ8), the log2 fold change is inactive: -0.261.

AHCYL2 (UniProt Q96HN2): the log2 fold change is inactive: -0.113.

On to AGA (UniProt P20933), for which the log2 fold change was inactive: 0.258.

On to ADA (UniProt P00813), for which the log2 fold change was inactive: 0.175.

As for ADSL (UniProt P30566), the log2 fold change is inactive: 0.014.

Regarding AFF4 (UniProt Q9UHB7), the log2 fold change was inactive: 0.078.

Consider AGPS (UniProt O00116), for which the log2 fold change was active: 0.365.

Consider ADPGK (UniProt Q9BRR6), for which the log2 fold change was inactive: 0.153.

For ACSF3 (UniProt Q4G176), the log2 fold change is inactive: -0.105.
